Reference: PubChem BioAssay AID2685 (National Center for Advancing Translational Sciences (NCATS), 2010)
Screen size: about 320,000 compounds; about 2,100 (0.66%) were called active. Inconclusive means that the source gave no clear call. Such entries were picked first, then a sample of the others. Calls follow the shape of the dose curve; as a rule, active = well fitted inhibition curve with a large enough effect in the signal ratio, with a control signal flat (not every such curve was filed as active); inconclusive = small, poorly fitted or top-dose-only effect, or effect the other way, or a change in a side signal; inactive = flat fitted curve, though single readings scatter; the % refers to the signal ratio. Where the call is inconclusive, the potency comes from a doubtful curve fit.

Test: qHTS Assay for Lipid Storage Modulators in Drosophila S3 Cells
Conditions: BODIPY lipid droplet fluorescence, 18-24 h, cells fed with added oleic acid; lipid storage change, negative = inhibition: at 46.1 µM (top of the series) unless noted
How it was run: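 Laser-scanning cytometry quantifies lipid droplet accumulation (500–530 nm total intensity; droplet/cell object ratio) in oleic acid-fed (400 uM added) Drosophila S3 cells treated with a concentration series. 20 uM Triacsin C defined 100% inhibition.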
% is scaled to controls: 0 for no effect and ±100 for the full control effect; potency is read from the fitted curve at half-maximal effect.

Potency, inconclusive:
Cc1[nH]n(-c2ccccc2)c(=O)c1C=Nc1ccc(S(=O)(=O)N=C(N)N)cc1 29.1 µM [rising, single point], COc1ccc(CNC(=O)CCCn2nc(C)c3c(C)n(-c4ccc(C)cc4)nc3c2=O)cc1 23.1 µM [falling, single point], CCN(C(=O)c1ccc(NC(=O)c2ccco2)cc1)c1ccccc1 29.1 µM [activator, single point], COc1ccc(-c2nnc(SCC(=O)NC(=O)NCc3ccco3)o2)cc1 1.64 µM [falling, partial curve], Cc1c(C(=O)O)sc(S(=O)(=O)N2CCN(C(=O)Cc3ccc(F)cc3)CC2)c1C(=O)O 1.84 µM [activator, partial curve], Cc1ccc2[nH]cc(/C=C/c3cc[n+](C)cc3)c2c1 18.4 µM [falling, single point], O=c1c2ccccc2ncn1CCOc1ccccc1[N+](=O)[O-] 29.1 µM [falling, single point], COC(=O)c1cccc(NC(=O)c2cccc(OC)c2)c1 0.013 µM [activator, full curve, poor fit], COc1cccc(OCC(=O)Nc2c3c(nn2-c2ccccc2)CS(=O)(=O)C3)c1 29.1 µM [rising, single point], COc1ccc(/C=C(/NC(=O)c2ccco2)C(=O)Nc2cccc(C(=O)O)c2)cc1 29.1 µM [falling, single point], CCCC(=O)Nc1ccc(S(=O)(=O)Nc2cc(OC)ncn2)cc1 29.1 µM [activator, single point], Cc1nnc(SCC(=O)Nc2ccc3c(c2)OCCO3)n1CC1CCCO1 (stereo not drawn) 0.231 µM [falling, full curve], CCOC(=O)c1cc2c(=O)n3ccccc3nc2n(CCCOC)c1=NC(=O)C(C)(C)C 23.1 µM [falling, partial curve], COc1ccc(-n2ncc(C(C)NS(=O)(=O)c3ccc(C)s3)c2C)cc1 (stereo not drawn) 2.31 µM [falling, single point], CN1C(=O)c2oc3ccccc3c(=O)c2C1c1ccccn1 (stereo not drawn) 0.103 µM [falling, full curve, poor fit], CC1(c2ccc3noc(-c4ccccc4)c3c2)OCCO1 2.91 µM [activator, full curve], Cc1sc2ncn(CC(=O)N3CCN(c4ccccn4)CC3)c(=O)c2c1S(=O)(=O)N1CCCCC1 1.16 µM [falling, single point], O=C(CN1C(=O)NC2(CCCc3ccccc32)C1=O)c1ccc(Br)cc1 (stereo not drawn) 0.517 µM [rising, full curve], O=C(Nc1ccc2c(c1)CCC2)c1cc(S(=O)(=O)Nc2ccc(F)cc2)c(Cl)cc1Cl 6.51 µM [activator, single point], CCCn1nnc(NC(=O)COc2ccc(C3CCCCC3)cc2)n1 18.4 µM [falling, partial curve, poor fit], COc1ccccc1-n1c(SCC(=O)NC2CC2)nc2ccccc2c1=O 0.58 µM [falling, full curve, poor fit], Cc1cc(/C=N\NC(=O)COc2cccc3cccnc23)c(C)n1-c1ccc(Br)cc1 32.6 µM [activator, partial curve, poor fit], COC(=O)Cc1ccc(N(Cc2ccccc2F)S(=O)(=O)c2ccc(Cl)cc2)cc1 9.2 µM [activator, partial curve]

Lipid storage change, negative = inhibition, inactive:
COc1ccc(CC(=O)NCC2CCCN(Cc3ccccc3Cl)C2)cc1 (stereo not drawn) 16.7%

Lipid storage change, negative = inhibition, inconclusive:
CC(C)C(C(=O)NCc1ccco1)N(C(=O)CNS(=O)(=O)c1ccccc1)c1ccccc1 (stereo not drawn) -26.7%, O=C(Nc1ccc([N+](=O)[O-])cc1)N1CCCCCC1 -44.3% [at 0.00295 µM], Clc1ccc(OCc2nnnn2-c2ccccc2)cc1 52.4%, C/C=C\C(=O)Nc1cccc(C2=NOC3(C2)C[C@@H](C(N)=O)N(C(=O)C2(C)CC2)C3)c1 (stereo partly drawn) 7.73%, Cc1ccccc1C(=O)c1c[nH]c(C(=O)NCCc2ccccn2)c1 11.3%, O=C(Cn1cnc2cc([N+](=O)[O-])ccc2c1=O)NC1CCS(=O)(=O)C1 (stereo not drawn) 33.1%, Cc1cc(S(=O)(=O)N2CCN(c3ccccc3O)CC2)c(C)s1 -1.54%, O=C(NCCCN1CCCC1)c1ccc2c(c1)N(Cc1ccccc1F)C(=O)c1ccccc1S2=O (stereo not drawn) 16.9%, CCOc1cc(C2C(C(=O)c3ccco3)=C(O)C(=O)N2CCc2ccccc2)ccc1O (stereo not drawn) 8%, O=C1C2C3C=CC(C3)C2C(=O)N1CNc1ccccc1 (stereo not drawn) -6.36%, CCOc1ccc(/C=N/NC(=O)C(OC)c2ccccc2)cc1 (stereo not drawn) 16.9%, Cc1nc(C)c(CC(=O)N/N=C/c2ccc(O)cc2)c(=O)[nH]1 -7.73%, CC(OC(=O)c1cccc(O)c1)C(=O)N(C)Cc1ccccc1 (stereo not drawn) 3.03%, Cn1nc(C(F)(F)F)c(-c2ccc(F)cc2)c1NC(=O)c1cccnc1 20.1%, O=C(CCC1CCCCC1)NC1=NCCS1 -13.4%, NC(=S)N/N=C1\CC(n2nnnc2-c2ccccc2)C2COC1O2 (stereo not drawn) -3.01%, O=C1c2ccccc2C(=O)N1CCc1nc2ccccc2c(=O)n1CCCn1ccnc1 32.8%, COc1ccccc1CN1CCNC(=O)C1CC(=O)O (stereo not drawn) 6.15%, CCSC1=N/C(=C\c2cccc(F)c2)C(=O)S1 -32.2%, CC(=O)c1ccc(OCC(O)CN2C(C)CCCC2C)cc1 (stereo not drawn) -50.9%, COc1ccc(S(=O)(=O)Nc2ccccc2C(=O)N2CCOCC2)cc1OC -43.9%, COC(=O)c1c(NC(=O)/C=C/c2ccco2)sc2c1CCC2 -17.5%, CC1CN(c2ncnc3c2oc2ccccc23)CC(C)O1 (stereo not drawn) 37.6%, CC1CC(C)CN(C(=O)COC(=O)c2cccc([N+](=O)[O-])c2)C1 (stereo not drawn) 43.2%, COc1ccc(-c2csc(NC(=O)CSCc3c(C)noc3C)n2)cc1OC -19.6%, O=C(OCC(=O)N1CCOCC1)c1cc2ccccc2oc1=O -0.459%, NS(=O)(=O)c1ccc(CCNC(=O)CNC(=O)c2ccc(F)cc2)cc1 107%, CCOc1ccc(NC(=O)c2ccc3c(c2)C(=O)N(Cc2ccncc2)C3=O)cc1, CCOC(=O)/C=C1\CN(CCC(C)C)S(=O)(=O)c2ccccc21 190%, Oc1c(Cl)cc(CN2CCCCC2)c2cccnc12 -24%, COC(=O)c1ccc(NC(=O)Cn2c([N+](=O)[O-])cnc2C)cc1 22.4%, Cc1ccc(-c2nnn(CC(=O)N(c3ccccc3)C(C(=O)NCC3CCCO3)c3ccc(F)cc3)n2)o1 (stereo not drawn) 1.63%, Cc1csc(NC(=O)Cn2nc(C)c([N+](=O)[O-])c2C)n1 5.1%, CC(C)(C)c1ccc(-n2ncc3c2CCCC3NC(=O)CCN2CCCCC2=O)cc1 (stereo not drawn) -100%, Cc1ccoc1C(=O)NCCNC(=O)c1occc1C, COc1ccc(CNC(=O)C(c2ccco2)N(C(=O)c2ccccn2)c2ccccc2)cc1 (stereo not drawn) 1.16%, O=C(NC1CC1)C1CCN(c2ncccn2)CC1 3.71%, COc1ccc(C2c3ccc4ccccc4c3Oc3ncn(CCCO)c(=N)c32)cc1 (stereo not drawn) -29.9%, CCOC(=O)/C(=N\Nc1cccc(C(F)(F)F)c1)N1CCOCC1 -1.66%, COc1ccc(CC(=O)Nc2ccc(S(=O)(=O)Nc3cc(C)on3)cc2)cc1OC 16.9%, CC(=O)c1ccc(NC(=O)CCOc2cc(C)ccc2C)cc1 305%, Cc1ccc(C2CC(c3ccc(F)cc3)Nc3nc(N)nn32)cc1 (stereo not drawn) 7.33%, COc1ccc(/C=C2\SC(=O)N(CCC(=O)N3CCCCC3CCO)C2=O)cc1 (stereo not drawn) -98.6%, c1ccc(-n2nnc3c(N4CCOCC4)ncnc32)cc1 -0.201%, COc1ncccc1-c1nnn(-c2ccc(C)cc2)n1 9.96%, COc1c(Cl)cc(Cl)cc1/C=C/C(=O)c1ccc(NC(=O)c2cccs2)cc1 12.6%, CC1(C)NC(=O)N(CC(O)CN2C(=O)CCC2=O)C1=O (stereo not drawn) -16.9%, COc1ccc(OCCCC(=O)OCC(=O)Nc2ncc(Cl)cc2Cl)cc1, c1ccc(CSc2ncnc3sccc23)cc1 -0.376%, CCOC(=O)c1cc(CC)sc1NC(=O)CN1C(=O)C(=O)N(CC(C)C)C1=O, COc1ccc(S(=O)(=O)N2CCOC23CCN(C(=O)c2c(F)cccc2Cl)CC3)cc1 -56.3%, O=C(CSc1nc2ccccc2c(=O)n1CC1CCCO1)Nc1ccccc1 (stereo not drawn) -8.63%

outcome, inactive:
Cn1c(N)c(C(=O)COC(=O)COc2ccccc2C#N)c(=O)n(C)c1=O inactive [at 46.1 µM], O=C1C(Cl)=C(N2CCOCC2)C(=O)N1c1ccccc1F inactive [at 46.1 µM]
